From article PMC7819943, “Rice protein-binding microarrays: a tool to detect cis-acting elements near promoter regions in rice”
The other results are listed elsewhere or left out.

biological target: T1, OsSMF1 (Oryza sativa, UniProt Q6ZLB0 1-436); assay: protein-binding microarray (RPBM); PBS, 2% BSA, 51.3 ng/ul salmon testes DNA, 50 uM zinc acetate, 200 nM TF, 25 C, 1 h; high values mean tight binding; conditions: protein: recombinant; tags: N-terminal polyhistidine and DsRed monomer fusion (pET32a); chain copies: 2; label: CyDye5-dUTP incorporated in the synthesized complementary strand; 3' TTTTT single-stranded linker to array surface; dsDNA, one strand shown
T1 sequence: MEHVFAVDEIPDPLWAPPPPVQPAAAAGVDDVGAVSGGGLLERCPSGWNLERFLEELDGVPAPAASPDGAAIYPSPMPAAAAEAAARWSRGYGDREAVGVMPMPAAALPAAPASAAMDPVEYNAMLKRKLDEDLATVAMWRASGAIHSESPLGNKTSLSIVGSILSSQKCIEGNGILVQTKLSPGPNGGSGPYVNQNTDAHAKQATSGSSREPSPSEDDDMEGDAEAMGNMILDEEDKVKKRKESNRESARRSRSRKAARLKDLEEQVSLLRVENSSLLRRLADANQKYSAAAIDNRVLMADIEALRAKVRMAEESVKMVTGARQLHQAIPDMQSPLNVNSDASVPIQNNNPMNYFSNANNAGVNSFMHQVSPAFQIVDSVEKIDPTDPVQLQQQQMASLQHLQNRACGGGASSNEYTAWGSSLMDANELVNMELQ
Summary of the method: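 Transcription factors, each fused N-terminally to a polyhistidine tag and DsRed, were expressed in E. coli BL21-CodonPlus and purified on Ni–NTA. A custom Agilent array was made double-stranded by primer extension with Cy5-dUTP and blocked with 2% BSA. It was incubated with 200 nM protein in PBS, 2% BSA, salmon testes DNA and 50 µM zinc acetate at 25 °C for 1 h, then washed. The binding signal is per-feature fluorescence intensity (arbitrary units) read on an Axon 4000B scanner.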

| Sequence | binding signal |
| --- | --- |
| AGTTGATTATGAGTCTTGTGACTTGTGGGGTTGTTTTGGTCGGAGTCACCTAGTGCAG | 4040 fluorescence intensity (a.u.) |
| GTACGGTCACGACTCATGACACAGTACTCCTAGTCAAACCCGGAGTCACCTAGTGCAG | 4140 fluorescence intensity (a.u.) |
| GAACCTCTCGTAGCCTCACATCTCGTCATTCCTCCCTCCTCGGAGTCACCTAGTGCAG | 5220 fluorescence intensity (a.u.) |
| AATACTTTATGCAGGTGTTCAAATGTTCGATGTGACAGGGCGGAGTCACCTAGTGCAG | 3150 fluorescence intensity (a.u.) |
| ACAGGAAAATCTATTTTCGTGTGCGCGTCATTTAACAGGTCGGAGTCACCTAGTGCAG | 3230 fluorescence intensity (a.u.) |
| AAAACCGTTTCCAAAACCATTTAGGGAGTCAATTTGCATTCGGAGTCACCTAGTGCAG | 3210 fluorescence intensity (a.u.) |
| TAAATTGTATATACGTATACAACATATACATGTATGTAGTCGGAGTCACCTAGTGCAG | 32900 fluorescence intensity (a.u.) |
| CTATACTATTAATATATGGTCTCATCTGTCATACATATATCGGAGTCACCTAGTGCAG | 3830 fluorescence intensity (a.u.) |
| AGCCCACAAGCATGCATGCCACACTAGCTTAGCTGTCTCACGGAGTCACCTAGTGCAG | 3710 fluorescence intensity (a.u.) |
| GGCGGACGCGGACGCGGGAGTGCGTGACGACGACGAGTCGCGGAGTCACCTAGTGCAG | 4070 fluorescence intensity (a.u.) |
| ATTGGATACATGTCATTGTAAGTTTGTAACTCTACCAGTTCGGAGTCACCTAGTGCAG | 4300 fluorescence intensity (a.u.) |
| GACCACCCCACTCCGCGCCACTGTCCACGTCTGCATAGTCCGGAGTCACCTAGTGCAG | 17600 fluorescence intensity (a.u.) |
| CGTATAGTTACAGTCGATCGAGGTGGTCAGTGAGACACAGCGGAGTCACCTAGTGCAG | 30200 fluorescence intensity (a.u.) |
| CCACCACCACCACCACCACCGCGCCCGACAACCACTTCTCCGGAGTCACCTAGTGCAG | 3340 fluorescence intensity (a.u.) |
| CACACACACACACACACACACACACACACACACACACACTCGGAGTCACCTAGTGCAG | 6190 fluorescence intensity (a.u.) |
| TTTTGAACGTCATGCACACAACTAGAGTATGTCCCATCGGCGGAGTCACCTAGTGCAG | 3860 fluorescence intensity (a.u.) |
| TCATGGAGGTCCAGCTCATTCTCCATGTGTGGTCCTAGAGCGGAGTCACCTAGTGCAG | 5740 fluorescence intensity (a.u.) |
| TGGCGCGGTCAGCGGCGCACGGGATGACGCGGAGCACGAGCGGAGTCACCTAGTGCAG | 3410 fluorescence intensity (a.u.) |
| AGCATTAGCAGCTAAGCCTAACAGTGGATTATGTCACGTTCGGAGTCACCTAGTGCAG | 3350 fluorescence intensity (a.u.) |
| ATCCGTGCTACCTCATCATATATTCACCAACATTAGGATACGGAGTCACCTAGTGCAG | 4250 fluorescence intensity (a.u.) |
| TGAGCACCTCATCCACGCGTCATGCATCTGTGTCGGGGCTCGGAGTCACCTAGTGCAG | 45200 fluorescence intensity (a.u.) |

| Sequence | binding signal |
| --- | --- |
| AACAAATACCCTCGTGGTTGGGCTGACTGTGCATCCGTTGCGGAGTCACCTAGTGCAG | 8090 fluorescence intensity (a.u.) |
| CAATCATATAGTAGATGAACACGAATATAGGGAGGGGCATCGGAGTCACCTAGTGCAG | 21500 fluorescence intensity (a.u.) |
| TGGACAAAGTTATTAGTTGTACTAGGAGGGGTCACATGTTCGGAGTCACCTAGTGCAG | 3180 fluorescence intensity (a.u.) |
| CGCGTTGCCCACGTCGTACCTCGTCCCGATCTTCACCATGCGGAGTCACCTAGTGCAG | 3450 fluorescence intensity (a.u.) |
| GCATGGCAGTATAATTGTCTTGTCACCCAATTAATATTGCCGGAGTCACCTAGTGCAG | 4580 fluorescence intensity (a.u.) |
| CGCTCGCGTCGCGTCCGCCTGACGAGGAAGCTACAACCATCGGAGTCACCTAGTGCAG | 3690 fluorescence intensity (a.u.) |
| AACAGATCTGTCCTATTTGCCTTACCACCCCATTTGTGCGCGGAGTCACCTAGTGCAG | 3660 fluorescence intensity (a.u.) |
| AATCCGCCGCCTCCCCAAAATCACGCGAGGCGCCGGCGAACGGAGTCACCTAGTGCAG | 38300 fluorescence intensity (a.u.) |
| CGGGCACTGGCTCAGCGACACTGACACGCCCGGGCCCACCCGGAGTCACCTAGTGCAG | 3920 fluorescence intensity (a.u.) |
| TGTGACCCATTCTAATACAATAAATCTGGACATGTGTACTCGGAGTCACCTAGTGCAG | 3630 fluorescence intensity (a.u.) |
| CGAATAGTAACAGTAGTAATGACATGTATCCAATTCACCTCGGAGTCACCTAGTGCAG | 4450 fluorescence intensity (a.u.) |
| TTGCTCGGGGCGATTGGGCCATGCGAGGTGCGGGATTTGACGGAGTCACCTAGTGCAG | 6040 fluorescence intensity (a.u.) |
| AAGCCTCTCCGTGAACCAACACCCATAGACCATTGTGACTCGGAGTCACCTAGTGCAG | 22400 fluorescence intensity (a.u.) |
| AAAATGTCACAAGTTTGGGCAGCCATGTCATGCACACATGCGGAGTCACCTAGTGCAG | 4590 fluorescence intensity (a.u.) |
| CCTGCACCCCGATATCATGGTCCGTATCAGCCAGGGTTTACGGAGTCACCTAGTGCAG | 3330 fluorescence intensity (a.u.) |
| GCGATCTGAAGTTCTGACTCATAGTCGACAACAGGGTAGCCGGAGTCACCTAGTGCAG | 3220 fluorescence intensity (a.u.) |
| GAAGAATTTGGATCCAACGTCCCAGATCAGCGCGCGTCCCCGGAGTCACCTAGTGCAG | 4230 fluorescence intensity (a.u.) |
| CAAGACACCAGCAAACGTAGGAGTGCTACGTGTGTACTCCCGGAGTCACCTAGTGCAG | 5040 fluorescence intensity (a.u.) |
| ATCTCACGGTAATCATACGGTTTTCACGATAATTATGTGGCGGAGTCACCTAGTGCAG | 3170 fluorescence intensity (a.u.) |
| CGATGCCCATGGGTATGACGCGCCAACCTAACAAGTGCTCCGGAGTCACCTAGTGCAG | 3580 fluorescence intensity (a.u.) |
| ATGTGACTGAAAAGTTGTGTGTGTATGACAGGTTGATGTGCGGAGTCACCTAGTGCAG | 3800 fluorescence intensity (a.u.) |

Quoted at random: three entries already listed

| Sequence | binding signal |
| --- | --- |
| CCTGCACCCCGATATCATGGTCCGTATCAGCCAGGGTTTACGGAGTCACCTAGTGCAG | 3330 fluorescence intensity (a.u.) |
| AGCCCACAAGCATGCATGCCACACTAGCTTAGCTGTCTCACGGAGTCACCTAGTGCAG | 3710 fluorescence intensity (a.u.) |
| GTACGGTCACGACTCATGACACAGTACTCCTAGTCAAACCCGGAGTCACCTAGTGCAG | 4140 fluorescence intensity (a.u.) |
